Measurements published in the supplement of paper PMC10849652.
The list shows a part of the results.

By UniProt entry, the sequences of proteins in these tests, tags left out. Where a name states a change or a piece, a line headed by the entry shows the natural chain unless it says otherwise.
UniProt Q9UBE8: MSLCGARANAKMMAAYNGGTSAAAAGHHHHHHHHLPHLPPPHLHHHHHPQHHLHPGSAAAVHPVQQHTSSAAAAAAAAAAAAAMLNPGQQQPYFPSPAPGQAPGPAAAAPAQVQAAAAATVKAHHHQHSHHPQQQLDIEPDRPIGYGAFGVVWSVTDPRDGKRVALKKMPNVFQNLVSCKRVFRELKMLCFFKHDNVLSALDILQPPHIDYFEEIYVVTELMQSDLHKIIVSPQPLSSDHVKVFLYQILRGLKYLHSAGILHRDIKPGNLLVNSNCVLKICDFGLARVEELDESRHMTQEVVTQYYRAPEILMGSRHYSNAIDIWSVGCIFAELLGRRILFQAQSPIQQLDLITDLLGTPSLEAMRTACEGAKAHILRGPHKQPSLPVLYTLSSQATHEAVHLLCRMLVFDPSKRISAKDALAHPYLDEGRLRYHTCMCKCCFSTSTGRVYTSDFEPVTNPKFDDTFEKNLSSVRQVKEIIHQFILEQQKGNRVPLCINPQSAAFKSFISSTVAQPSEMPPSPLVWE
UniProt Q96JN8: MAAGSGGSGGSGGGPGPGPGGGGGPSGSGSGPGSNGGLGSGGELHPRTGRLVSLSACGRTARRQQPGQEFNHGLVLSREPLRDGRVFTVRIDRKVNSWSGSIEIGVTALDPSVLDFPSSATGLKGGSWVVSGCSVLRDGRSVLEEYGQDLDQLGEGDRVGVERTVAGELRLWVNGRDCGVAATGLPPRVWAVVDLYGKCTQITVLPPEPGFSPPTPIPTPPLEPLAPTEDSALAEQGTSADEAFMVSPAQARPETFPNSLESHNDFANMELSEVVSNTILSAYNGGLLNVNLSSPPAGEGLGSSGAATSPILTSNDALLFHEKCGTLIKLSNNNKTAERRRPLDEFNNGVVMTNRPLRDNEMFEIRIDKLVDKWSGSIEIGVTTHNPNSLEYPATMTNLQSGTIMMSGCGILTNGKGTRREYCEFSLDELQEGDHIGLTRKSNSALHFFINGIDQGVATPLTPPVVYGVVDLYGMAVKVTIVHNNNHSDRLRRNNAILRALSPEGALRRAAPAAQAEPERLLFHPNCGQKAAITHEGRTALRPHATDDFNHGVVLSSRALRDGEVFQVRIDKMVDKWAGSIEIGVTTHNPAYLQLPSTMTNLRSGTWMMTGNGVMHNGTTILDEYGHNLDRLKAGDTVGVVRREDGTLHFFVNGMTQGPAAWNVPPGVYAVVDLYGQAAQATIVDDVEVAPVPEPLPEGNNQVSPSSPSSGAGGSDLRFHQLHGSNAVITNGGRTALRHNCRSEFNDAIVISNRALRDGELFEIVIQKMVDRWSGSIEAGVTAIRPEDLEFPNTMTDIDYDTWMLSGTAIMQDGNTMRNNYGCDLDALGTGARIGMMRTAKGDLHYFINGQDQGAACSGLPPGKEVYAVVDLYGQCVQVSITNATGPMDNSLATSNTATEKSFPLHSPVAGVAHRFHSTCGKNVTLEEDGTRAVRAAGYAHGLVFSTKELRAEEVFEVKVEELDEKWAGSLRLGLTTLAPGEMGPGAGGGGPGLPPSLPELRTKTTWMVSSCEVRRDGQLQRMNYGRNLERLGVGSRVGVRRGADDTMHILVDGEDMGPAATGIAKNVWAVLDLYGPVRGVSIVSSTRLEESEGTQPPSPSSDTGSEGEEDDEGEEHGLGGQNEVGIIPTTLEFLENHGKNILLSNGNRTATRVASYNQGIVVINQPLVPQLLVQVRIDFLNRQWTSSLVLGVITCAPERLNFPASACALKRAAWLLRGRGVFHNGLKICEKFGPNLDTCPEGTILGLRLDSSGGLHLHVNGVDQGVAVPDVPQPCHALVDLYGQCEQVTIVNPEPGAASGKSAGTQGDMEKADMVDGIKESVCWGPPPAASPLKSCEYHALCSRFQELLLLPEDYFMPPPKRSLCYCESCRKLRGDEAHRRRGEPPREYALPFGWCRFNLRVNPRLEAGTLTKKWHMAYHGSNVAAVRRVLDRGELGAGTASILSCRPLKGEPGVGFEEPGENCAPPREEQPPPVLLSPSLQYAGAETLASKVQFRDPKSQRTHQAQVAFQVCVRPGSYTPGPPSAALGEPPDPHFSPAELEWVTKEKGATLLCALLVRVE
UniProt Q12857, whole entry, looked up: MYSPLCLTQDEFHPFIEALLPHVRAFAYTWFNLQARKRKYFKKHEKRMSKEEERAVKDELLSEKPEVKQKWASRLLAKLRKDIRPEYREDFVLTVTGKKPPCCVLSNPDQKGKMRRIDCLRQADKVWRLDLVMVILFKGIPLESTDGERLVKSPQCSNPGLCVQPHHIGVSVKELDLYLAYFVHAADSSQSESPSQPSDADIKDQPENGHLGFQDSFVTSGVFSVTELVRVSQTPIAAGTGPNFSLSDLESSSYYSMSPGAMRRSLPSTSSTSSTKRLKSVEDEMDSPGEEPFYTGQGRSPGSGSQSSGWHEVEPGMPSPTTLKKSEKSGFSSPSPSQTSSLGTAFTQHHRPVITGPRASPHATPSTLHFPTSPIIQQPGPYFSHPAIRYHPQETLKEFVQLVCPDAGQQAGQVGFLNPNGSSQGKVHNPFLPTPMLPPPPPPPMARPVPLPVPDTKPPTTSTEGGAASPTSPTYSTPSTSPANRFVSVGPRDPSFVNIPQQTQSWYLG
UniProt Q7RTP0: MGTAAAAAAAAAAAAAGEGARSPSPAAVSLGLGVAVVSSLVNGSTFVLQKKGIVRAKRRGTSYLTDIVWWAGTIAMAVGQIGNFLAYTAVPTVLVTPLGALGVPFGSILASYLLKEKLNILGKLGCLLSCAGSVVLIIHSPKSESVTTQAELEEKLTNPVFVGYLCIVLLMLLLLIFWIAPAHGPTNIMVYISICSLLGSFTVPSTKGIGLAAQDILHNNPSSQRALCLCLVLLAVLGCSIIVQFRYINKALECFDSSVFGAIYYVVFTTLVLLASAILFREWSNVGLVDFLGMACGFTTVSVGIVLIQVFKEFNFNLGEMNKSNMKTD
UniProt Q13952: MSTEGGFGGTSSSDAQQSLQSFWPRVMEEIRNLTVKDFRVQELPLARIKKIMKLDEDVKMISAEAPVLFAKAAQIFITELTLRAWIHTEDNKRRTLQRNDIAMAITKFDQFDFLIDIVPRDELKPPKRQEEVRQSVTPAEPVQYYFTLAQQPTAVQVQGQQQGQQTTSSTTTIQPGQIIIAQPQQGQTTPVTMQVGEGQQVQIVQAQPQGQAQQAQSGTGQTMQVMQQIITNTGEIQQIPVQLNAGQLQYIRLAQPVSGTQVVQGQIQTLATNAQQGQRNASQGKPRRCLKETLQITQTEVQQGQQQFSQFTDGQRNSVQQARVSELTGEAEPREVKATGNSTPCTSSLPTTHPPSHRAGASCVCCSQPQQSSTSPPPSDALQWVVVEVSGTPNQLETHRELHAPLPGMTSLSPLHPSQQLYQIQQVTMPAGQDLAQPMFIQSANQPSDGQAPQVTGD
UniProt P19838: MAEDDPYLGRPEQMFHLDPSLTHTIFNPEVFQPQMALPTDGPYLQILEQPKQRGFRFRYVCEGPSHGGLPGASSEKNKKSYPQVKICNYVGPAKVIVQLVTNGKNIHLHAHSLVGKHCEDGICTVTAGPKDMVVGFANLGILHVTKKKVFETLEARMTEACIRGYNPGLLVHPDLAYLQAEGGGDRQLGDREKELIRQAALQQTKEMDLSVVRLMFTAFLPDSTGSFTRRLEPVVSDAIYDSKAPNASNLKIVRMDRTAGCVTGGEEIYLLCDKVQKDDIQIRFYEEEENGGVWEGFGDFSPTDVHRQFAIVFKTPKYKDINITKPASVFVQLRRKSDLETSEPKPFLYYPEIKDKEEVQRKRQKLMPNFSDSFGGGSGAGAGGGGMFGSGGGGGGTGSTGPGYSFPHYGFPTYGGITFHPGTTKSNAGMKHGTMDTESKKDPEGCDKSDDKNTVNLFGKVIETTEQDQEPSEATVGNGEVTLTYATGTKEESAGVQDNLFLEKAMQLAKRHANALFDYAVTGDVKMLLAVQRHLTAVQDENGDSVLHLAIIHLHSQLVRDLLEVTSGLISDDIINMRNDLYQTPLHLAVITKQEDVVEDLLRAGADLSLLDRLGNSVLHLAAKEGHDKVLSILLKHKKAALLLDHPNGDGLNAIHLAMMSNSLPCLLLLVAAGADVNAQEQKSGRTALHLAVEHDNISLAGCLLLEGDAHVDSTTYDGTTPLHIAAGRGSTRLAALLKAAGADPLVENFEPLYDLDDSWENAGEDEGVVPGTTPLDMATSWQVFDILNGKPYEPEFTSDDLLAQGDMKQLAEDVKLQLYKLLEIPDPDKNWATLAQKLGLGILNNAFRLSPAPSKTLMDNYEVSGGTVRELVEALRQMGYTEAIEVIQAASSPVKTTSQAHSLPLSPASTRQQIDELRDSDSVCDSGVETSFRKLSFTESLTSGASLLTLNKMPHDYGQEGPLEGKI
UniProt O43677, whole entry, looked up: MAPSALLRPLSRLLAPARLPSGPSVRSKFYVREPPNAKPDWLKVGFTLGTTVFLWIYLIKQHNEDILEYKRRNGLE
UniProt O15226: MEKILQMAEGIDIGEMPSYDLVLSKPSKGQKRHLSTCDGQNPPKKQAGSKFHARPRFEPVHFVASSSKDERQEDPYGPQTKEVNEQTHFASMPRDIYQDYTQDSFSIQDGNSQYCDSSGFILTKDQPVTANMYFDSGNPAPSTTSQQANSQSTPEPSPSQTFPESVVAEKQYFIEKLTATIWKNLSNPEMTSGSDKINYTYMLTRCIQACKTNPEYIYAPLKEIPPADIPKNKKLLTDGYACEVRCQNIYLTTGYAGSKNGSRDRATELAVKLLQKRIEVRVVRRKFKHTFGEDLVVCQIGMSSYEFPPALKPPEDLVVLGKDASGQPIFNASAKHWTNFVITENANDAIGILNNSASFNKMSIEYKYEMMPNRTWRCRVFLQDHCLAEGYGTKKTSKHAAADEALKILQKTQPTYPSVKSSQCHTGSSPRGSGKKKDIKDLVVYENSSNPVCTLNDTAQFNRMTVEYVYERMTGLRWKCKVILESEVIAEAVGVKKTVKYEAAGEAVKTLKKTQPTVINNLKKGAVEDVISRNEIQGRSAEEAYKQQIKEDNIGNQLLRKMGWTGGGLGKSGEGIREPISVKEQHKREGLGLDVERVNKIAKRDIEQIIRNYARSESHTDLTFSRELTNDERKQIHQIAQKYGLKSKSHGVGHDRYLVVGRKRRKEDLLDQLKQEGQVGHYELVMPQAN
UniProt Q14934: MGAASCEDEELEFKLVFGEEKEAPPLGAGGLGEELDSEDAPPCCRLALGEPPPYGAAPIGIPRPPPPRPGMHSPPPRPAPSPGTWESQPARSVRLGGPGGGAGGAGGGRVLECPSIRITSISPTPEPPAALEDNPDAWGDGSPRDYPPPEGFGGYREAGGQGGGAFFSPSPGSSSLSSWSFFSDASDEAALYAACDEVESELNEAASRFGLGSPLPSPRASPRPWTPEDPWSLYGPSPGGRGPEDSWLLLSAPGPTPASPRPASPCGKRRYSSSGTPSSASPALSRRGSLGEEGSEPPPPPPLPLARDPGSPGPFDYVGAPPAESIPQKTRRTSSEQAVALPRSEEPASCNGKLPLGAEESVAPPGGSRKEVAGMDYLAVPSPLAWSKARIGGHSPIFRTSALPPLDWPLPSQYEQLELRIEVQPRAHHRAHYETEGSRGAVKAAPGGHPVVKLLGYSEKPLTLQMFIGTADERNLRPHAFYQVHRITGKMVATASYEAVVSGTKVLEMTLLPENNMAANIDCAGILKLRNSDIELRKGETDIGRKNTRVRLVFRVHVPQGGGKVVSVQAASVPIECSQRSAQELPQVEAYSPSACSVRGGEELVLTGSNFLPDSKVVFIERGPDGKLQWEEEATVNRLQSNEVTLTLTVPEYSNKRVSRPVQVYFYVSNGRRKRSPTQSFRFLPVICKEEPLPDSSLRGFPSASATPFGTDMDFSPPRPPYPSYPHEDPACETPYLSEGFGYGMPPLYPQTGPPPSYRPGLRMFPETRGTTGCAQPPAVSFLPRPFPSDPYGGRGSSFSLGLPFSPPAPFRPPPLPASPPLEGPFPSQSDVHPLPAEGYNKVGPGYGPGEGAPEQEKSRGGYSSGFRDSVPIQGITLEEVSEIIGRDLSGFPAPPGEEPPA
UniProt O75438, whole entry, looked up: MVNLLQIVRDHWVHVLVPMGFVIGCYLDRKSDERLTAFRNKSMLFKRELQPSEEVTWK
UniProt Q969S2: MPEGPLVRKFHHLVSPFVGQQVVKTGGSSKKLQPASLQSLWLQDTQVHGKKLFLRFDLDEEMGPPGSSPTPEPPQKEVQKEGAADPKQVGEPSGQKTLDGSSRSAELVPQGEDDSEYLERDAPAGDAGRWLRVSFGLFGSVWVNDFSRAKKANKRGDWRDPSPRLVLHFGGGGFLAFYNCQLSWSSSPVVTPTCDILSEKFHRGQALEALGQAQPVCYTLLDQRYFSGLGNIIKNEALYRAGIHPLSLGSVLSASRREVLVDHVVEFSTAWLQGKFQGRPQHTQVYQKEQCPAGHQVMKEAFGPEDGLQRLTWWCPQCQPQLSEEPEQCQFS

Columns and labels:
Assay in all cases: log2 fold change, soluble protein after heating vs DMSO (PISA); higher = thermal stabilisation; K562 lysate, 10 uM; active = over 0.2 and 3.5 SD of the protein, either way, in both replicates (recomputed)
[1] = compound: C#Cc1cccc(Nc2ncnc3cc(OCCOC)c(OCCOC)cc23)c1 [erlotinib]
Summary of the method: (§1)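 The values are log-two fold changes in thermal stability compared with solvent controls and come from duplicates. They were obtained by TMTpro 16plex LC-MS/MS, with channel sums equalised, on the supernatant after 21,000xg for 90 min. That supernatant came from crude K562 extract at 1 mg/mL protein treated with 10 μM compound for 30 min, heated for 3 min across 48°C-58°C, pooled and brought to 0.5% NP-40 at 4°C.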

[2] = compound: C/C(=N\NC(=O)C1=CC(=CC=C1)S(=O)(=O)N2CCOCC2)/C3=C(C=CC(=C3)Cl)O
Summary of the method: as §1

[3] = compound: C1=CC(=CC=C1C2=NC3=C(N2)C=C(C=C3)C(=O)N)OC4=CC=C(C=C4)Cl
Summary of the method: as §1

[4] = compound: C1=CC2=C(C=CC(=C2)/C=C\3/C(=O)NC(=NCC4=CC=CS4)S3)N=C1
Summary of the method: as §1

[5] = compound: C1=CC=C2C(=C1)C3=NNC4=CC=CC(=C43)C2=O
Summary of the method: as §1

[6] = compound: C1=CC=C(C=C1)C2=NC(=C(N2)C3=CC=NC=C3)C4=CC(=C(C=C4)Cl)O
Summary of the method: as §1

[7] = compound: C1COCCN1CCN2C3=CC=CC=C3N=C2NC(=O)C4=CC(=CC=C4)[N+](=O)[O-] [IRAK-1-4 Inhibitor I]
Summary of the method: as §1

[8] = compound: C1=CC2=NC=CN=C2C=C1/C=C/3\C(=O)NC(=O)S3
Summary of the method: as §1

[9] = compound: C1CCN(C1)C(=O)NC2=CC=CC(=C2)NC3=NC=C(C(=N3)NCCC4=CN=CN4)Br
Summary of the method: as §1

[10] = compound: C1CN(CCC1(CC2=CC=C(C=C2)Cl)N)C3=NC=NC4=C3C=CN4
Summary of the method: as §1

Row | Target | log2 fold change [1] | log2 fold change [2] | log2 fold change [3] | log2 fold change [4] | log2 fold change [5] | log2 fold change [6] | log2 fold change [7] | log2 fold change [8] | log2 fold change [9] | log2 fold change [10]
1 | NLK (UniProt Q9UBE8) | inactive: 0.011 | inactive: 0.295 | inactive: 0.008 | inactive: 0.271 | inactive: -0.059 |  |  |  |  | 
2 | NET1 (UniProt Q7Z628) | inactive: -0.074 | inactive: 0.148 | inactive: -0.01 | inactive: -0.226 | inactive: -0.022 | inactive: 0.032 | inactive: 0.01 |  |  | 
3 | NDFIP2 (UniProt Q9NV92) |  |  |  |  |  | inactive: 0.026 | inactive: -0.049 |  |  | 
4 | NDRG1 (UniProt Q92597) | inactive: -0.042 | inactive: -0.127 | inactive: -0.014 | inactive: -0.004 | inactive: 0.095 | inactive: -0.022 | inactive: 0.111 | inactive: 0.396 |  | 
5 | NEURL4 (UniProt Q96JN8) | inactive: -0.147 | inactive: -0.018 | inactive: -0.069 | inactive: -0.174 | inactive: -0.001 |  |  |  | inactive: 0.035 | inactive: -0.022
6 | NFRKB isoform 2 (UniProt Q6P4R8) | inactive: -0.099 |  | inactive: 0.091 |  |  |  |  |  | inactive: -0.041 | inactive: 0.132
7 | NGDN (UniProt Q8NEJ9) | inactive: -0.013 |  | inactive: -0.108 |  |  | inactive: -0.006 | inactive: -0.067 |  | inactive: -0.342 | inactive: 0.348
8 | NEK4 (UniProt P51957) |  | inactive: -0.128 |  | inactive: -0.005 | inactive: 0.073 |  |  |  |  | 
9 | NKIRAS1 (UniProt Q9NYS0) | inactive: -0.018 | inactive: -0.233 | inactive: 0.204 | inactive: -0.015 | inactive: -0.138 |  |  |  | inactive: 0.118 | inactive: -0.122
10 | NFIA isoform 4 (UniProt Q12857) | inactive: 0.023 | inactive: 0.05 | inactive: -0.005 | inactive: 0.079 | inactive: -0.044 | inactive: -0.138 | inactive: 0.105 | inactive: -0.018 |  | 
11 | NHLRC3 (UniProt Q5JS37) | inactive: -0.007 | inactive: -0.028 | inactive: 0.062 | inactive: -0.061 | inactive: -0.052 | inactive: -0.051 | inactive: -0.025 |  | inactive: -0.026 | inactive: 0.202
12 | NIPA1 (UniProt Q7RTP0) | inactive: -0.02 | inactive: -0.043 | inactive: -0.138 | inactive: -0.073 | inactive: 0.072 | inactive: 0.024 | inactive: -0.034 | inactive: 0.026 |  | 
13 | NLRX1 (UniProt Q86UT6) | inactive: 0.013 | inactive: 0.015 | inactive: 0.149 | inactive: -0.097 | inactive: -0.035 |  |  |  | inactive: 0.068 | inactive: -0.098
14 | NEU4 (UniProt C9JEA3) | inactive: -0.021 | inactive: -0.152 | inactive: 0.121 | inactive: -0.003 | inactive: -0.014 | inactive: -0.073 | inactive: -0.044 | inactive: 0.034 |  | 
15 | NKAPD1 isoform 2 (UniProt Q6ZUT1) | inactive: -0.032 |  | inactive: 0.002 |  |  |  |  |  |  | 
16 | NFE2L1 (UniProt Q14494) | inactive: -0.043 | inactive: -0.068 | inactive: 0.139 | inactive: -0.019 | inactive: -0.007 | inactive: -0.152 | inactive: -0.055 |  | inactive: -0.112 | inactive: -0.088
17 | NFYC isoform 3 (UniProt Q13952) | inactive: -0.136 |  | inactive: -0.153 |  |  |  |  |  |  | 
18 | NEO1 (UniProt Q92859) |  |  |  |  |  |  |  | inactive: -0.1 |  | 
19 | NFKB1 isoform 2 (UniProt P19838) |  | inactive: -0.044 | inactive: -0.035 | inactive: -0.006 | inactive: -0.013 | inactive: 0.008 | inactive: 0.019 | inactive: -0.002 | inactive: -0.015 | inactive: 0.013
20 | NIN isoform 7 (UniProt Q8N4C6) | inactive: -0.056 |  | inactive: -0.039 |  |  | inactive: 0.035 | inactive: -0.022 |  |  | 

Row | Target | log2 fold change [1] | log2 fold change [2] | log2 fold change [3] | log2 fold change [4] | log2 fold change [5] | log2 fold change [6] | log2 fold change [7] | log2 fold change [8] | log2 fold change [9] | log2 fold change [10]
21 | NDUFC1 (UniProt O43677) | inactive: -0.047 |  | inactive: -0.089 |  |  | inactive: -0.079 | inactive: 0.006 |  | inactive: 0 | inactive: 0.068
22 | NKRF isoform 2 (UniProt O15226) | inactive: -0.031 | inactive: 0.047 | inactive: -0.033 | inactive: -0.064 | inactive: 0.075 | inactive: 0.044 | inactive: 0.124 |  | inactive: -0.1 | inactive: -0.003
23 | NECTIN2 isoform 2 (UniProt Q92692) | inactive: -0.114 | inactive: -0.06 | inactive: -0.017 | inactive: 0.152 | inactive: -0.062 | inactive: 0.049 | inactive: 0.111 |  | inactive: -0.059 | inactive: 0.049
24 | NFIL3 (UniProt Q16649) |  |  |  |  |  | inactive: 0.055 | inactive: 0.02 |  | inactive: 0.084 | inactive: -0.332
25 | NDUFA7 (UniProt M0R0N0) |  |  |  |  |  |  |  | inactive: -0.092 |  | 
26 | NFKBIA (UniProt P25963) | inactive: 0.166 | inactive: 0.047 | inactive: 0.023 | inactive: 0.11 | inactive: -0.057 |  |  | inactive: 0.108 |  | 
27 | NEPRO (UniProt Q6NW34) | inactive: -0.029 |  | inactive: -0.024 |  |  | inactive: 0.031 | inactive: -0.101 | inactive: 0 | inactive: 0.007 | inactive: -0.007
28 | NFATC4 isoform 2 (UniProt Q14934) |  | active: -0.627 |  | inactive: -0.132 | inactive: -0.224 |  |  | inactive: -0.064 | inactive: -0.07 | inactive: -0.012
29 | NDUFB1 (UniProt O75438) | inactive: -0.014 | inactive: -0.096 | inactive: -0.082 | inactive: -0.022 | inactive: 0.013 | inactive: -0.131 | inactive: 0.05 | inactive: 0.021 |  | 
30 | NDUFAF6 (UniProt Q330K2) | inactive: 0.087 |  | inactive: -0.186 |  |  | inactive: -0.081 | inactive: 0.176 | inactive: 0.053 | inactive: 0.101 | inactive: 0.479
31 | NEIL2 (UniProt Q969S2) | inactive: 0.087 |  | inactive: 0.144 |  |  |  |  |  |  | 
32 | NLRP1 (UniProt Q9C000) | inactive: -0.048 |  | inactive: -0.888 |  |  | inactive: 0.665 | inactive: 0.136 |  | inactive: 0.442 | inactive: 0.055
33 | NFAT5 isoform 4 (UniProt O94916) |  |  |  |  |  |  |  | inactive: 0.161 |  | 
34 | NDRG2 (UniProt G3V2A6) |  |  |  |  |  |  |  | inactive: -0.174 |  | 
35 | NEB isoform 3 (UniProt P20929) | inactive: 0.146 | inactive: 0.011 | inactive: 0.143 | inactive: -0.127 | inactive: -0.22 | inactive: -0.041 | inactive: 0.115 | inactive: -0.054 |  | 
36 | NDRG2 isoform 6 (UniProt Q9UN36) | inactive: -0.025 | inactive: 0.038 | inactive: 0.035 | inactive: 0.273 | inactive: -0.209 | inactive: -0.17 | inactive: 0.004 |  | inactive: -0.05 | inactive: -0.075
37 | NEK5 (UniProt Q6P3R8) |  | inactive: -0.018 |  | inactive: 0.056 | inactive: -0.018 | inactive: -0.013 | inactive: 0.152 |  | inactive: -0.047 | inactive: 0.015
38 | NEMP1 (UniProt O14524) |  |  |  |  |  |  |  | inactive: -0.03 |  | 
39 | NEK8 (UniProt Q86SG6) | inactive: -0.102 | inactive: -0.519 | inactive: 0.043 | inactive: 0.25 | inactive: -0.135 | inactive: -0.072 | inactive: 0.071 |  |  | 
40 | NFIX (UniProt Q14938) |  |  |  |  |  |  |  |  | inactive: 0.044 | inactive: 0.023

An excerpt from further up, for reference:
Row | Target | log2 fold change [1] | log2 fold change [2] | log2 fold change [3] | log2 fold change [4] | log2 fold change [5] | log2 fold change [6] | log2 fold change [7] | log2 fold change [8] | log2 fold change [9] | log2 fold change [10]
34 | NDRG2 (UniProt G3V2A6) |  |  |  |  |  |  |  | inactive: -0.174 |  | 
35 | NEB isoform 3 (UniProt P20929) | inactive: 0.146 | inactive: 0.011 | inactive: 0.143 | inactive: -0.127 | inactive: -0.22 | inactive: -0.041 | inactive: 0.115 | inactive: -0.054 |  | 
